Measurements reported in PubChem BioAssay AID1224826 (NIAID, 2016)
Here is an unselected part of about 17,000 reagents. In the full data, about 1,110 (6.6%) were called active. 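Active means lowered or raised reporter signal; replicate intensities are raw and not normalised per plate.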 Some reagents were tested in more than one well and are listed for each. No sequences are given here.

Assay: 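Knock-downs that raise or lower Tnf reporter signal after endotoxin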 (primary screen)
Cell system: RAW264.7 G9 macrophages from mouse bearing reporters for p65 (GFP) and the Tnf promoter (mCherry)
Knock-down reagent: siRNA pool against mouse genes, 100 nM
Time to read-out: 16 h of LPS stimulation, after 2 days of siRNA transfection
Challenge: bacterial lipopolysaccharide (Salmonella minnesota R595), 10 ng/ml
Detection: 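Nuclear mCherry signal of the Tnf promoter reporter measured by imaging after background removal, scaled to each plate median and turned into robust z-scores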
Direction: Tnf reporter robust z-score: higher = stronger Tnf promoter reporter signal after LPS; Tnf reporter intensity: higher = stronger Tnf promoter reporter signal
Call rule: 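a well counts as active at a score of -1.3 or below (Tlr4 knock-down control median) or above 3 (raised signal); controls and wells holding fewer than 50 cells are excluded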
Meaning of the calls: active = Tnf reporter clearly lowered or raised; inactive = no clear change in Tnf reporter

no.	gene knocked down	Tnf reporter robust z-score	fewer than 50 cells in well	Tnf reporter intensity, replicate 1	Tnf reporter intensity, replicate 2	activity call
1	Map4k5 (GeneID 399510)	-1.63	enough cells in well	89.6	50	active
2	Map4k5 (GeneID 399510)	-0.96	enough cells in well	132	83.9	inactive
3	Il1rl2 (GeneID 107527)	0.1	enough cells in well	240	104	inactive
4	Pde3b (GeneID 18576)	-0.45	enough cells in well	210	151	inactive
5	Fgfbp1 (GeneID 14181)	-0.87	enough cells in well	186	162	inactive
6	Rnf187 (GeneID 108660)	-0.8	enough cells in well	106	117	inactive
7	Bub3 (GeneID 12237)	1.58	enough cells in well	225	245	inactive
8	Doc2a (GeneID 13446)	0.67	enough cells in well	205	157	inactive
9	Armcx1 (GeneID 78248)	0.65	enough cells in well	197	211	inactive
10	Acsl6 (GeneID 216739)	1.42	enough cells in well	183	326	inactive
11	Tmem107 (GeneID 66910)	-0.54	enough cells in well	223	60.6	inactive
12	Mocs2 (GeneID 17434)	0.31	enough cells in well	282	234	inactive
13	1700029F12Rik (GeneID 66479)	2.17	enough cells in well	368	147	inactive
14	Pkd2 (GeneID 18764)	0.59	enough cells in well	296	229	inactive
15	Tmem53 (GeneID 68777)	-0.37	enough cells in well	248	38.9	inactive
16	Ablim3 (GeneID 319713)	2.46	enough cells in well	380	266	inactive
17	S100a10 (GeneID 20194)	0.2	enough cells in well	332	217	inactive
18	Mospd1 (GeneID 70380)	0.34	enough cells in well	278	104	inactive
19	Miga2 (GeneID 108958)	0.34	enough cells in well	191	169	inactive
20	Api5 (GeneID 11800)	0.63	enough cells in well	177	235	inactive
21	Slc25a36 (GeneID 192287)	0.4	enough cells in well	121	195	inactive
22	Col14a1 (GeneID 12818)	0.71	enough cells in well	283	279	inactive
23	Faf2 (GeneID 76577)		fewer than 50 cells per well; well left out of calls	135	53.2	inactive
24	Gnl1 (GeneID 14670)	1.1	enough cells in well	317	238	inactive
25	Eola1 (GeneID 68618)	-0.23	enough cells in well	261	49.9	inactive
26	Oas1g (GeneID 23960)	0.34	enough cells in well	265	206	inactive
27	Synpr (GeneID 72003)	0.34	enough cells in well	109	123	inactive
28	Pla2g4e (GeneID 329502)	1.2	enough cells in well	215	57.9	inactive
29	Gzmn (GeneID 245839)	0.18	enough cells in well	236	191	inactive
30	Zbtb8a (GeneID 73680)	-0.06	enough cells in well	227	74.1	inactive
31	Nppc (GeneID 18159)	0.42	enough cells in well	219	168	inactive
32	Cmtm8 (GeneID 70031)	2.16	enough cells in well	259	137	inactive
33	Or6c88 (GeneID 258375)		fewer than 50 cells per well; well left out of calls	102	43.8	inactive
34	Adck5 (GeneID 268822)	0.76	enough cells in well	255	191	inactive
35	AI606181 (GeneID 226118)	0.36	enough cells in well	243	199	inactive

The list goes on, starting with the last 5 of the part before.
no.	gene knocked down	Tnf reporter robust z-score	fewer than 50 cells in well	Tnf reporter intensity, replicate 1	Tnf reporter intensity, replicate 2	activity call
31	Nppc (GeneID 18159)	0.42	enough cells in well	219	168	inactive
32	Cmtm8 (GeneID 70031)	2.16	enough cells in well	259	137	inactive
33	Or6c88 (GeneID 258375)		fewer than 50 cells per well; well left out of calls	102	43.8	inactive
34	Adck5 (GeneID 268822)	0.76	enough cells in well	255	191	inactive
35	AI606181 (GeneID 226118)	0.36	enough cells in well	243	199	inactive
36	Rnf144a (GeneID 108089)	-0.45	enough cells in well	273	167	inactive
37	Folr1 (GeneID 14275)	3.75	enough cells in well	615	502	active
38	A730013G03Rik (GeneID 320952)	3.97	enough cells in well	378	383	active
39	Sult4a1 (GeneID 29859)	-0.05	enough cells in well	46.3	90.5	inactive
40	Or4a69 (GeneID 258447)	0.63	enough cells in well	222	168	inactive
41	Itgb1bp2 (GeneID 26549)	-0.72	enough cells in well	219	86.6	inactive
42	Npy2r (GeneID 18167)	0.72	enough cells in well	328	112	inactive
43	Il2rg (GeneID 16186)	-0.01	enough cells in well	230	156	inactive
44	Ang4 (GeneID 219033)	0.78	enough cells in well	225	200	inactive
45	Epop (GeneID 103551)	-0.92	enough cells in well	130	78.4	inactive
46	Glrp1 (GeneID 14659)	2.71	enough cells in well	430	291	inactive
47	Ugt1a6a (GeneID 94284)		fewer than 50 cells per well; well left out of calls	17.1	223	inactive
48	Dlgap5 (GeneID 218977)	-0.1	enough cells in well	247	176	inactive
49	Atg5 (GeneID 11793)	-0.64	enough cells in well	152	109	inactive
50	Gpr25 (GeneID 383563)	-0.17	enough cells in well	216	253	inactive
51	Mfn1 (GeneID 67414)	-0.87	enough cells in well	121	114	inactive
52	Chd9 (GeneID 109151)	-0.46	enough cells in well	134	134	inactive
53	Fzr1 (GeneID 56371)	0.03	enough cells in well	271	130	inactive
54	Cyb5r2 (GeneID 320635)	0.97	enough cells in well	318	291	inactive
55	Cd59a (GeneID 12509)	-0.46	enough cells in well	212	171	inactive
56	Twist2 (GeneID 13345)		fewer than 50 cells per well; well left out of calls	43.9	0	inactive
57	Ms4a4d (GeneID 66607)	0.39	enough cells in well	238	131	inactive
58	Emsy (GeneID 233545)	-0.43	enough cells in well	163	39.8	inactive
59	Dis3l2 (GeneID 208718)	-0.15	enough cells in well	206	60.2	inactive
60	Sack1a (GeneID 239463)	-1.09	enough cells in well	125	137	inactive
61	H2-DMa (GeneID 14998)	0.54	enough cells in well	249	251	inactive
62	Atf3 (GeneID 11910)		fewer than 50 cells per well; well left out of calls	96.1	103	inactive
63	Srcin1 (GeneID 56013)		fewer than 50 cells per well; well left out of calls	103	61.6	inactive
64	Insm2 (GeneID 56856)	-0.04	enough cells in well	190	182	inactive
65	Tle5 (GeneID 14797)	-1	enough cells in well	102	157	inactive
66	Gda (GeneID 14544)	0.01	enough cells in well	248	137	inactive
67	Gpr142 (GeneID 217302)	-0.34	enough cells in well	180	194	inactive
68	Hesx1 (GeneID 15209)	-0.43	enough cells in well	217	148	inactive
69	Pdik1l (GeneID 230809)	-0.48	enough cells in well	132	130	inactive
70	Wif1 (GeneID 24117)		fewer than 50 cells per well; well left out of calls	137	153	inactive
71	Prr14l (GeneID 215476)		fewer than 50 cells per well; well left out of calls	196	119	inactive
72	Mmp16 (GeneID 17389)	0.46	enough cells in well	292	248	inactive
73	Skp1 (GeneID 21402)	0.13	enough cells in well	302	215	inactive
74	Tmem44 (GeneID 224090)	0.41	enough cells in well	237	181	inactive
75	Krt35 (GeneID 53617)	0.49	enough cells in well	282	173	inactive
